{"source": "patent US11497782B2", "about": "“Composition for treating atopic dermatitis” (GANGNEUNG-WONJU NATIONAL UNIVERSITY INDUSTRY ACADEMY …, priority 2017, dated 2022)", "system": "BALB/c mice induced to develop skin diseases similar to atopic dermatitis", "details": "oral; butanol fraction 10, 25 mg/kg; Methylprednisolone 0.5 mg/kg (FIG. 15)", "note": "For at least one compound, name, drawing or mass did not settle the structure.", "data": [{"molecule": "C[C@H]1C[C@@H]2[C@H]([C@@H](O)C[C@@]3(C)[C@H]2CC[C@]3(O)C(=O)CO)[C@@]2(C)C=CC(=O)C=C12", "note": "[Methylprednisolone]", "values": [{"measurement": "skin thickness of the ear (H&E histology) versus DNCB-treated group", "value": "thinner skin"}]}]}
